Source: article PMC7819943, “Rice protein-binding microarrays: a tool to detect cis-acting elements near promoter regions in rice”
The other results are listed elsewhere or left out.

Biological target: T1, OsSMF1 (Oryza sativa, UniProt Q6ZLB0 1-436)
T1 sequence: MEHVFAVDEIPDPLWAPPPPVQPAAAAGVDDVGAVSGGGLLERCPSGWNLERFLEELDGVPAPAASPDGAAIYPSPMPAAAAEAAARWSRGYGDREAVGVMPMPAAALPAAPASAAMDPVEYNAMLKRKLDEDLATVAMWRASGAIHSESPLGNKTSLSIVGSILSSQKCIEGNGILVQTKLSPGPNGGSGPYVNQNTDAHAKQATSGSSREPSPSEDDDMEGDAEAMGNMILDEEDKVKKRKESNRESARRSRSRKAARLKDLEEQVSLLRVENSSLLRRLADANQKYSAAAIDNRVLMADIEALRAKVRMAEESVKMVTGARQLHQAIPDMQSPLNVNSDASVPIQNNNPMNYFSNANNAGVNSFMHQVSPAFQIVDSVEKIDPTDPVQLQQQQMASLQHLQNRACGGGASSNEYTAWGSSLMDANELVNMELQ
Test: protein-binding microarray (RPBM); PBS, 2% BSA, 51.3 ng/ul salmon testes DNA, 50 uM zinc acetate, 200 nM TF, 25 C, 1 h; high values mean tight binding
Settings: protein: recombinant; tags: N-terminal polyhistidine and DsRed monomer fusion (pET32a); chain copies: 2; label: CyDye5-dUTP incorporated in the synthesized complementary strand; 3' TTTTT single-stranded linker to array surface; dsDNA, one strand shown
Summary of the method: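 The binding signal for each feature is its fluorescence intensity in arbitrary units. An Axon 4000B scanner was used to read a custom Agilent array that had been made double-stranded with Cy5-dUTP primer extension, blocked with 2% BSA, incubated at 25 °C for 1 h with 200 nM protein in PBS, 2% BSA, salmon testes DNA and 50 µM zinc acetate, and washed. The protein was an N-terminal polyhistidine–DsRed transcription factor fusion from E. coli BL21-CodonPlus, purified on Ni–NTA.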

Sequence | binding signal
AATATAGGGGTATCTTTTAAAATATTTTGTATATACTGAACGGAGTCACCTAGTGCAG | 36500 fluorescence intensity (a.u.)
ACTGTCTGATATATTTTACATGACAACAAAGTTACAAGTACGGAGTCACCTAGTGCAG | 4140 fluorescence intensity (a.u.)
TTTGGGTGAAGTGTCACGTAGTCATGTTGCCTTGGCGTCACGGAGTCACCTAGTGCAG | 3330 fluorescence intensity (a.u.)
CTATCATATGTCGACATCAGTGACGTCACTCAGGCAGTCACGGAGTCACCTAGTGCAG | 13600 fluorescence intensity (a.u.)
CCGCCACTGGCGTGCCGGTGACATGCTTGGACTCATCCACCGGAGTCACCTAGTGCAG | 4180 fluorescence intensity (a.u.)
GCGGCGGTGGGTGGCGGGGCAGCAGACGAGCAAGAAAGAGCGGAGTCACCTAGTGCAG | 3170 fluorescence intensity (a.u.)
GGTTCGTTCGTTCGCCGCTAGTTGCCACCTTCGCCGCGGCCGGAGTCACCTAGTGCAG | 3320 fluorescence intensity (a.u.)
AGCAAAGTGAAGGGCAATGGGACACAGGGTGGCATGTGTTCGGAGTCACCTAGTGCAG | 15600 fluorescence intensity (a.u.)
AATATCACGCTTATAAAGATGGCTACAATATAGAAGAGATCGGAGTCACCTAGTGCAG | 26200 fluorescence intensity (a.u.)
GCCATTTCCCCACGTTGATGTTGACTGTTTACTGTTTAGACGGAGTCACCTAGTGCAG | 3580 fluorescence intensity (a.u.)
CATTCGTGACCGGCCGCCGCCCTCGCCTTCTCCGGCGTCGCGGAGTCACCTAGTGCAG | 3300 fluorescence intensity (a.u.)
CCCCTTCGTCGTCTTCGTCATCGTCTCCAACCTCCGATTTCGGAGTCACCTAGTGCAG | 4640 fluorescence intensity (a.u.)
GACCCAAATGTCATAGAGACACGACGGTTCACATGTCATACGGAGTCACCTAGTGCAG | 3900 fluorescence intensity (a.u.)
GAGTATTTTACAGGGGTTTCATCGTGTCATTTGCCACCCGCGGAGTCACCTAGTGCAG | 3160 fluorescence intensity (a.u.)
AAAACAAATCACAAATATGACGTCATAATTACCGGCTTTCCGGAGTCACCTAGTGCAG | 20200 fluorescence intensity (a.u.)
ATTAGGAGTATCTTGCCAAGTGTCCAACTAGACATGGTCCCGGAGTCACCTAGTGCAG | 4110 fluorescence intensity (a.u.)
TTTTCTGTTCTGCATGAGCCATGTGGATTTGGTTGTCTACCGGAGTCACCTAGTGCAG | 4560 fluorescence intensity (a.u.)
GCGGACGCGGGAAGTTCCCCTCCGGTTCCCATGTCACCGGCGGAGTCACCTAGTGCAG | 3240 fluorescence intensity (a.u.)
AAGGTTTGGGTTGAGATGGGAGTAGAAGGGAGTGAGGTGGCGGAGTCACCTAGTGCAG | 6950 fluorescence intensity (a.u.)
CATATGGTGTCTTGTAAATTTCCTTTTCCACGTACTAACACGGAGTCACCTAGTGCAG | 3490 fluorescence intensity (a.u.)
AACTGTGCTTACATCAGGCATGTGAGTTTCTTTATTGGTTCGGAGTCACCTAGTGCAG | 6220 fluorescence intensity (a.u.)
CATGAAACGTCCACGTGGTGGTTAATTAATTTCGTGTGCGCGGAGTCACCTAGTGCAG | 7080 fluorescence intensity (a.u.)
GCGGTTAATTATTGAACATCATGCGTAAGTCATGCAACTTCGGAGTCACCTAGTGCAG | 3810 fluorescence intensity (a.u.)
GCGCGAGGCTTCCACCGTGGACGCGCCTCCTGCCGATAAACGGAGTCACCTAGTGCAG | 3460 fluorescence intensity (a.u.)
GCATCCGTGCGCCTCGATTGTTGCATCCCAGATGCCACGTCGGAGTCACCTAGTGCAG | 5610 fluorescence intensity (a.u.)
CGCCACGGGTGCCCGCGTCATCCCATCCCCTCGCGCGTCGCGGAGTCACCTAGTGCAG | 5990 fluorescence intensity (a.u.)
CAGGGTATGAATCACGTGGAGAACAATTCTGATGTTCGCCCGGAGTCACCTAGTGCAG | 3680 fluorescence intensity (a.u.)

Sequence | binding signal
TCGCCCGCCCAAAGCGGCAAAGCGGTGACGCAAACTCGTTCGGAGTCACCTAGTGCAG | 3580 fluorescence intensity (a.u.)
GGAAGGACGCCCAGCCGCCACGTGCACAGCTCATAGCCACCGGAGTCACCTAGTGCAG | 8480 fluorescence intensity (a.u.)
CACGACCATGGTGACGATGGCATCACACTCCGCCATTGCACGGAGTCACCTAGTGCAG | 5220 fluorescence intensity (a.u.)
CTCATGAGCTCACAAATATTATATGACGCAACCAAAGCTACGGAGTCACCTAGTGCAG | 3370 fluorescence intensity (a.u.)
ACGCCGTGCGCGCTGACGTCACTCTCGAGTTGGCCAAAAGCGGAGTCACCTAGTGCAG | 17000 fluorescence intensity (a.u.)
TTGAAATGTTTAGTTCTGAGAAATGAGCTGTCATATGCCACGGAGTCACCTAGTGCAG | 7440 fluorescence intensity (a.u.)
TAAACCCTAAGCTCAAAGCCATCTTTCCTCAAAAGGCAAACGGAGTCACCTAGTGCAG | 16300 fluorescence intensity (a.u.)
TGGTGGTGGTGGTGGCTGTAGTGTGGAGGTGGTGGGGAGTCGGAGTCACCTAGTGCAG | 4660 fluorescence intensity (a.u.)
GTGACACCGCCAGGTGTGCCCCACCTGTCACCCTCCAGCGCGGAGTCACCTAGTGCAG | 4000 fluorescence intensity (a.u.)
CCAATCCGAGCGGTCGTCGGCGCCGTTCCACACCATGGCTCGGAGTCACCTAGTGCAG | 6430 fluorescence intensity (a.u.)
CGCCGCGCAACACCACCGACGACGACGTCAACCCGCACCCCGGAGTCACCTAGTGCAG | 4380 fluorescence intensity (a.u.)
CCGACCCTGCCACCGTCATCTGACGACGTTTTCCCAGGGCCGGAGTCACCTAGTGCAG | 8470 fluorescence intensity (a.u.)
TACATTTTGAAGGTGGGAGGGTAGGATAGTAATTTCGCATCGGAGTCACCTAGTGCAG | 4070 fluorescence intensity (a.u.)
GACGACTGCTGGTACACGGACATGAGGCTGCAGCCGACGACGGAGTCACCTAGTGCAG | 3480 fluorescence intensity (a.u.)
ATTATAGTTTTGTGATGACTTGTAAATCCGTAGATTTGTGCGGAGTCACCTAGTGCAG | 5000 fluorescence intensity (a.u.)
TCGCGAGTGACGCAGCTCCCATCAGCAGCAACGAGCTCTGCGGAGTCACCTAGTGCAG | 5180 fluorescence intensity (a.u.)
CACTAGTAAAGGGAGTCACTCCCGAACTTATTCCAATCCGCGGAGTCACCTAGTGCAG | 4310 fluorescence intensity (a.u.)
GATTTGCGGATAGGCGCCACGCGCGCGCTGCGACGTTACACGGAGTCACCTAGTGCAG | 4020 fluorescence intensity (a.u.)
TCCCCTTCTTCACCGATGCGGCGATGCGCGCGCCTTCTTCCGGAGTCACCTAGTGCAG | 27500 fluorescence intensity (a.u.)
AGAGTTACTAACTACAAAGTTGTAGATCTCCTTGAGCTCTCGGAGTCACCTAGTGCAG | 7900 fluorescence intensity (a.u.)
TCTCAACTTCTCCACGTTTTCTTGATGTATGCGGAAGCCCCGGAGTCACCTAGTGCAG | 3940 fluorescence intensity (a.u.)
CTCTTGTGCAAAACTGCCAGATCAGATTCAGATGCATTCTCGGAGTCACCTAGTGCAG | 3380 fluorescence intensity (a.u.)
CATTGGTTGATGTGTCGTCCAAAAGAGATGTTATAGTTTGCGGAGTCACCTAGTGCAG | 4230 fluorescence intensity (a.u.)
TTCTATAATCCATGATTACTCAGCAAAATTTGACCAAATTCGGAGTCACCTAGTGCAG | 5340 fluorescence intensity (a.u.)
TACTTAAGTGCCAAGTGTCAAAGTGTGTGTGGTTTTCTGCCGGAGTCACCTAGTGCAG | 4130 fluorescence intensity (a.u.)
CCCTCCAGAGGTTGCACTGCCACGTGGATTGCCCTATCATCGGAGTCACCTAGTGCAG | 13300 fluorescence intensity (a.u.)
AATGCTGCAATTTCTCGTTGACTAGACTTCACATGCAGCTCGGAGTCACCTAGTGCAG | 5400 fluorescence intensity (a.u.)

Looked up above:
In binding signal, ACGCCGTGCGCGCTGACGTCACTCTCGAGTTGGCCAAAAGCGGAGTCACCTAGTGCAG has 17000 fluorescence intensity (a.u.)
In binding signal, CGCCGCGCAACACCACCGACGACGACGTCAACCCGCACCCCGGAGTCACCTAGTGCAG has 4380 fluorescence intensity (a.u.)
In binding signal, ATTATAGTTTTGTGATGACTTGTAAATCCGTAGATTTGTGCGGAGTCACCTAGTGCAG has 5000 fluorescence intensity (a.u.)
In binding signal, CTCATGAGCTCACAAATATTATATGACGCAACCAAAGCTACGGAGTCACCTAGTGCAG has 3370 fluorescence intensity (a.u.)
In binding signal, AGAGTTACTAACTACAAAGTTGTAGATCTCCTTGAGCTCTCGGAGTCACCTAGTGCAG has 7900 fluorescence intensity (a.u.)
